Publication PMC3125256
Results are given in words; binding and its absence hold for the method and conditions named. In cells and extracts the contact can be indirect. Some binding calls cover weakened binding; strength is not graded here.

Experiments:
[1] = target: FLAG-tagged GPR54 (UniProt Q969F8); assay: co-IP; HEK 293 cells co-transfected with FLAG-GPR54 and EGFR-EGFP, serum-starved 4 h, with or without Kp-10 (100 nM); lysis in 20 mM HEPES, 150 mM NaCl, 1.5 mM MgCl2, 1% Triton X-100; anti-FLAG antibody and protein G-Sepharose overnight at 4°C; blot with anti-GFP
[2] = target: GPR54-ECFP (UniProt Q969F8); assay: FRET or BRET; sensitized emission PFRET in live HEK 293 cells co-expressing GPR54-ECFP (donor) and EGFR-EGFP (acceptor), 37°C, serum-starved 4 h; analysed at the plasma membrane; unstimulated or stimulated with Kp-10 (100 nM; 10 nM data not shown) or EGF (10 ng/ml) for 5 and 15 min

EGFR-EGFP (from UniProt P00533 25-1210) (receptor)
binding [1]: binds
binding [2]: binds
